These are yes or no findings as the source states them, for the method shown. Some entries that bind do so weakly or less than the wild type.
Molecular target: N^L21… (… with L21E) (N. benthamiana)
Assay: native gel or EMSA; BN-PAGE (NativePAGE 4-16% Bis-Tris) of 1% digitonin extracts of nrc2/3/4_KO N. benthamiana leaves at 2 dpi; NRC3 variant co-expressed with Rpi-blb2 and AVRblb2

B1: N^L21… (… with L21E) (natural protein, N. benthamiana, UniProt A0A5J6DCA3 1-888, looked up)
chain: MADVAADVAVKFLVENLMQLEIDNADLIIGIKGEVENLLQDLNDFNAFLKQAAKSRRDNEVLKSLVKKIRKVVNDAEDSIDKFVIEAKRHDDKNKFAQWFHLTHVARAKGVADEIKTIRERVKEIRQNDAYGLQAITSYDNFNQGAQERKVPVVEEDDVVGFDDEAKTVIDRLIGGSDYVVPVVGMPGLGKTTLAYKIFKDPKVEYEFFNRIWVYVSQSFKRREIFLNIISKFTRNTKQYHDTPEEELANEIKELLGKGGKYLVVLDDVWTREAWDRIKIAFPNNNKRNRVLMTTRQNNVAKSCNDKPHDLKFLTENESWELLEKRVFHKEKCPFELELPGKSIAKKCRGLPLAIVVIAGALIGKGKTTREWELVADSVGEHLINRDPENCKKLVQMSYDRLPYDLKACFLYCGAFPGGSEISAQKLICLWIAEGFIQYQGPLTLEDIAEDHLNDLVNRNLVMVMKRSSSGQIKTCRVHDMLHEFCRHEAMMEENLFQEIKRGQEHSFPEKQELASYRRLCIHSSVSEFLSTKPFAEHVRSFLCFASKKFEMPLGEIPAIPRAFPLLRVLDAESIKFSRFSREFFKLFHLRYIAFSTDSIMTIPTNIGNLWNVQTLIIETQQGTLDIKADIWNMTRLRHVCTNASATLPSPKRPKSSKDNLVNRCLQTLSTIAPECCTAEVFTRTPNLKKLGVRGKIDALLETSKDGSSSGLFSNIGKLDCLEKLKLVNDTRQSRKQLHLPPAYIFPQKLKKLTLIDTWFEWKDMSILGLLEYLEVLKLKENAFRGQSWEPEDSGFPRLQVLWIERTDLSSWKASSGNFPRLKHLVLIACDKLKELPAELADVENLQLMELQSTSVSAAKSARAILKKKQQKVGSGFKLSVFPPDLGL
notes: L21E is named only in the methods of the BN-PAGE; source: nrc2/3/4_KO N. benthamiana leaves, agroinfiltrated, in digitonin extract
binding: binds

Source: publication PMC11421798, “Subfunctionalization of NRC3 altered the genetic structure of the Nicotiana NRC network” (PLOS Genetics, 2024)
